{"source": "patent US8449794B2", "about": "“Non-resonant two-photon absorption recording material and non-resonant two-photon absorption compound” (FUJIFILM Corporation, priority 2010, dated 2013)", "assay": "Two-photon absorption cross-sectional area by Z scanning method", "type": "physicochemical", "conditions": "measurement wavelength 405 nm; chloroform solution 1×10^−3", "experimental": "Measurement of a two-photon absorption cross-sectional area of the synthesized compound is carried out by Z scanning method described in Mansoor Sheik-Baha et al., IEEE, Journal of Quantum Electronics, 1990, 26, 760. Z scanning method is a widely used method as the measuring method of a non-linear optical constant. In the vicinity of the focus of converged laser beam, a measuring sample is moved along the beam and the change of the quantity of transmitting light is recorded. Since the power density of incident light changes depending upon the position of a sample, the quantity of transmitting light attenuates in the vicinity of the focus in the case where non-linear absorption is present. A two-photon absorption cross-sectional area is computed by fitting the change of the quantity of transmitting light to the theoretical curve predictable from the intensity of incident light, the size of converging spot of light, the thickness of a sample and the concentration of a sample. As the light sources for the measurement of a two-photon absorption cross-sectional area, a Ti-sapphire pulse laser (pulse duration: 100 fs, repetition: 80 MHz, average output: 1 W, peak power: 100 kW) obtained by combining a […] amplifier and light parametric amplifier is used. […]", "note": "At least one compound was matched to its structure with a doubt left."}
{"smiles": "COc1cc(-c2ccc(-c3ccc(C(=O)c4ccccc4)cc3)c(OC)c2)ccc1-c1ccc(C#N)cc1", "note": "[Compound D-405]", "values": [{"measurement": "Two-Photon Absorption Cross-Sectional Area", "value": 770, "unit": "GM"}]}
